# Test results from the supplement of paper PMC8728848.
# The other results are listed elsewhere or left out.
# B1: BabA (Helicobacter pylori), O52269_HELPY (protein)
# chain: AEDDGFYMSAGYQIGEAAQMVKNTKGIQELSDNYENLSNLLTRYSTLNTLIKLSADPSAVNAARENLGASAKNLIGDTKNSPAYQAVLLAINAAVGFWNVVGYVTQCGGNANGQKSTSSTTIFNNEPGYRSTSITCSLNGHMPGYYGPMSIENFKKLNEAYQILQTALKNGLPALKENNGTVNVTYSYTCSGEGNDNCSLQTTGVTNQNNGTKTETQTIDGKSVTTTISSKVVDSQ
# How the values were obtained:
# Assay in all cases: glycan array binding signal (z-score within array); higher = stronger binding
# Details in all cases: glycan notation: IUPAC condensed, linker removed
# [1] = target: Fuc(a1-2)Gal(b1-4)GlcNAc(b1-2)[Fuc(a1-2)Gal(b1-4)GlcNAc(b1-4)]Man(a1-3)[Fuc(a1-2)Gal(b1-4)GlcNAc(b1-2)Man(a1-6)]Man(b1-4)GlcNAc(b1-4)GlcNAc
# Procedure, shortened: (§1)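 Glycan array data were curated from 3228 arrays in the Consortium for Functional Glycomics database and kept only where the protein sequence was available. Glycan names were converted to IUPAC-condensed notation, and columns mapping to the same glycan were averaged. The binding signal is a within-array Z-score, averaged across arrays of the same protein sequence at different concentrations or buffers and across linkers. Negative Z-scores can be read as non-binding.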
# [2] = target: Fuc(a1-2)Gal(b1-4)GlcNAc(b1-3)Gal(b1-4)GlcNAc
# Procedure, shortened: as §1
# [3] = target: Fuc(a1-2)Gal(b1-4)GlcNAc(b1-3)Gal(b1-4)GlcNAc(b1-2)Man(a1-3)[Fuc(a1-2)Gal(b1-4)GlcNAc(b1-3)Gal(b1-4)GlcNAc(b1-2)Man(a1-6)]Man(b1-4)GlcNAc(b1-4)GlcNAc
# Procedure, shortened: as §1
# [4] = target: Fuc(a1-2)Gal(b1-4)GlcNAc(b1-3)Gal(b1-4)GlcNAc(b1-3)Gal(b1-4)GlcNAc
# Procedure, shortened: as §1
# [5] = target: Fuc(a1-2)Gal(b1-4)GlcNAc(b1-3)GalNAc
# Procedure, shortened: as §1
# [6] = target: Fuc(a1-2)Gal(b1-4)GlcNAc(b1-3)[Fuc(a1-2)Gal(b1-4)GlcNAc(b1-6)]GalNAc
# Procedure, shortened: as §1
# [7] = target: Fuc(a1-2)Gal(b1-4)GlcNAc(b1-3)[Fuc(a1-3)[Gal(b1-4)]GlcNAc(b1-6)]Gal(b1-4)Glc
# Procedure, shortened: as §1
# [8] = target: Fuc(a1-2)Gal(b1-4)GlcNAc(b1-6)GalNAc
# Procedure, shortened: as §1
# [9] = target: Fuc(a1-2)Gal(b1-4)GlcNAc6S
# Procedure, shortened: as §1
# [10] = target: Fuc(a1-2)Gal(b1-4)[Fuc(a1-3)]GlcNAc
# Procedure, shortened: as §1
# [11] = target: Fuc(a1-2)Gal(b1-4)[Fuc(a1-3)]GlcNAc(b1-2)Man(a1-3)[Fuc(a1-2)Gal(b1-4)[Fuc(a1-3)]GlcNAc(b1-2)Man(a1-6)]Man(b1-4)GlcNAc(b1-4)GlcNAc
# Procedure, shortened: as §1
# [12] = target: Fuc(a1-2)Gal(b1-4)[Fuc(a1-3)]GlcNAc(b1-2)Man(a1-3)[Fuc(a1-2)Gal(b1-4)[Fuc(a1-3)]GlcNAc(b1-2)Man(a1-6)]Man(b1-4)GlcNAc(b1-4)[Fuc(a1-6)]GlcNAc
# Procedure, shortened: as §1
# [13] = target: Fuc(a1-2)Gal(b1-4)[Fuc(a1-3)]GlcNAc(b1-2)[Fuc(a1-2)Gal(b1-4)[Fuc(a1-3)]GlcNAc(b1-4)]Man(a1-3)[Fuc(a1-2)Gal(b1-4)[Fuc(a1-3)]GlcNAc(b1-2)Man(a1-6)]Man(b1-4)GlcNAc(b1-4)GlcNAc
# Procedure, shortened: as §1
# [14] = target: Fuc(a1-2)Gal(b1-4)[Fuc(a1-3)]GlcNAc(b1-3)Gal(b1-4)[Fuc(a1-3)]GlcNAc
# Procedure, shortened: as §1
# [15] = target: Fuc(a1-2)Gal(b1-4)[Fuc(a1-3)]GlcNAc(b1-3)Gal(b1-4)[Fuc(a1-3)]GlcNAc(b1-3)Gal(b1-4)[Fuc(a1-3)]GlcNAc
# Procedure, shortened: as §1
# [16] = target: Fuc(a1-2)Gal(b1-4)[Fuc(a1-3)]GlcNAc(b1-3)GalNAc
# Procedure, shortened: as §1
# [17] = target: Fuc(a1-2)Gal(b1-4)[Fuc(a1-3)]GlcNAc(b1-3)[Neu5Ac(a2-6)Gal(b1-4)GlcNAc(b1-6)]Gal(b1-4)Glc
# Procedure, shortened: as §1
# [18] = target: Fuc(a1-2)Gal3S(b1-4)GlcNAc
# Procedure, shortened: as §1
# [19] = target: Fuc(a1-2)Gal6S(b1-3)GlcNAc
# Procedure, shortened: as §1
# [20] = target: Fuc(a1-2)Gal6S(b1-3)GlcNAc6S
# Procedure, shortened: as §1
# Fuc(a1-2)Gal6S(b1-4)Glc = target: Fuc(a1-2)Gal6S(b1-4)Glc
# Procedure, shortened: as §1
# [21] = target: Fuc(a1-2)Gal6S(b1-4)Glc6S
# Procedure, shortened: as §1
# [22] = target: Fuc(a1-2)Gal6S(b1-4)GlcNAc
# Procedure, shortened: as §1
# Fuc(a1-2)[Gal(a1-3)]Gal = target: Fuc(a1-2)[Gal(a1-3)]Gal
# Procedure, shortened: as §1
# [23] = target: Fuc(a1-2)[Gal(a1-3)]Gal(b1-3)GalNAc
# Procedure, shortened: as §1
# [24] = target: Fuc(a1-2)[Gal(a1-3)]Gal(b1-3)GalNAc(b1-3)Gal(a1-4)Gal(b1-4)Glc
# Procedure, shortened: as §1
# [25] = target: Fuc(a1-2)[Gal(a1-3)]Gal(b1-3)GlcNAc
# Procedure, shortened: as §1
# [26] = target: Fuc(a1-2)[Gal(a1-3)]Gal(b1-3)GlcNAc(b1-2)Man(a1-3)[Fuc(a1-2)[Gal(a1-3)]Gal(b1-3)GlcNAc(b1-2)Man(a1-6)]Man(b1-4)GlcNAc(b1-4)GlcNAc
# Procedure, shortened: as §1
# [27] = target: Fuc(a1-2)[Gal(a1-3)]Gal(b1-3)GlcNAc(b1-2)Man(a1-3)[Fuc(a1-2)[Gal(a1-3)]Gal(b1-3)GlcNAc(b1-2)Man(a1-6)]Man(b1-4)GlcNAc(b1-4)[Fuc(a1-6)]GlcNAc
# Procedure, shortened: as §1
# [28] = target: Fuc(a1-2)[Gal(a1-3)]Gal(b1-3)GlcNAc(b1-3)GalNAc
# Procedure, shortened: as §1
# [29] = target: Fuc(a1-2)[Gal(a1-3)]Gal(b1-3)GlcNAc(b1-6)GalNAc
# Procedure, shortened: as §1
# [30] = target: Fuc(a1-2)[Gal(a1-3)]Gal(b1-4)Glc
# Procedure, shortened: as §1
# [31] = target: Fuc(a1-2)[Gal(a1-3)]Gal(b1-4)GlcNAc
# Procedure, shortened: as §1
# [32] = target: Fuc(a1-2)[Gal(a1-3)]Gal(b1-4)GlcNAc(b1-2)Man
# Procedure, shortened: as §1
# [33] = target: Fuc(a1-2)[Gal(a1-3)]Gal(b1-4)GlcNAc(b1-2)Man(a1-3)[Fuc(a1-2)[Gal(a1-3)]Gal(b1-4)GlcNAc(b1-2)Man(a1-6)]Man(b1-4)GlcNAc(b1-4)GlcNAc
# Procedure, shortened: as §1
# [34] = target: Fuc(a1-2)[Gal(a1-3)]Gal(b1-4)GlcNAc(b1-2)Man(a1-3)[Fuc(a1-2)[Gal(a1-3)]Gal(b1-4)GlcNAc(b1-2)Man(a1-6)]Man(b1-4)GlcNAc(b1-4)[Fuc(a1-6)]GlcNAc
# Procedure, shortened: as §1
# [35] = target: Fuc(a1-2)[Gal(a1-3)]Gal(b1-4)GlcNAc(b1-3)GalNAc
# Procedure, shortened: as §1
# [36] = target: Fuc(a1-2)[Gal(a1-3)]Gal(b1-4)GlcNAc(b1-3)[Fuc(a1-2)[Gal(a1-3)]Gal(b1-4)GlcNAc(b1-6)]GalNAc
# Procedure, shortened: as §1
# [37] = target: Fuc(a1-2)[Gal(a1-3)]Gal(b1-4)GlcNAc(b1-6)GalNAc
# Procedure, shortened: as §1
# [38] = target: Fuc(a1-2)[Gal(a1-3)]Gal(b1-4)[Fuc(a1-3)]Glc
# Procedure, shortened: as §1
# [39] = target: Fuc(a1-2)[Gal(a1-3)]Gal(b1-4)[Fuc(a1-3)]GlcNAc
# Procedure, shortened: as §1
# [40] = target: Fuc(a1-2)[Gal(a1-3)]Gal(b1-4)[Fuc(a1-3)]GlcNAc(b1-3)GalNAc
# Procedure, shortened: as §1
# [41] = target: Fuc(a1-2)[Gal(a1-4)]Gal(b1-4)GlcNAc
# Procedure, shortened: as §1
# [42] = target: Fuc(a1-2)[GalNAc(a1-3)]Gal
# Procedure, shortened: as §1
# [43] = target: Fuc(a1-2)[GalNAc(a1-3)]Gal(b1-3)GalNAc(a1-3)[Fuc(a1-2)]Gal(b1-4)GlcNAc
# Procedure, shortened: as §1
binder,measurement,setting,value
B1,glycan array binding signal (z-score),[1],0.235
same,glycan array binding signal (z-score),[2],0.271
same,glycan array binding signal (z-score),[3],0.717
same,glycan array binding signal (z-score),[4],-0.631
same,glycan array binding signal (z-score),[5],-0.627
same,glycan array binding signal (z-score),[6],-0.691
same,glycan array binding signal (z-score),[7],-0.3
same,glycan array binding signal (z-score),[8],0.344
same,glycan array binding signal (z-score),[9],0.682
same,glycan array binding signal (z-score),[10],1.17
same,glycan array binding signal (z-score),[11],-1.18
same,glycan array binding signal (z-score),[12],0.862
same,glycan array binding signal (z-score),[13],0.98
same,glycan array binding signal (z-score),[14],-0.317
same,glycan array binding signal (z-score),[15],-0.502
same,glycan array binding signal (z-score),[16],0.299
same,glycan array binding signal (z-score),[17],-0.409
same,glycan array binding signal (z-score),[18],-0.373
same,glycan array binding signal (z-score),[19],-0.346
same,glycan array binding signal (z-score),[20],0.635
same,glycan array binding signal (z-score),Fuc(a1-2)Gal6S(b1-4)Glc,-0.218
same,glycan array binding signal (z-score),[21],0.093
same,glycan array binding signal (z-score),[22],0.283
same,glycan array binding signal (z-score),Fuc(a1-2)[Gal(a1-3)]Gal,-0.529
same,glycan array binding signal (z-score),[23],-0.182
same,glycan array binding signal (z-score),[24],0.444
same,glycan array binding signal (z-score),[25],0.081
same,glycan array binding signal (z-score),[26],-0.46
same,glycan array binding signal (z-score),[27],0.381
same,glycan array binding signal (z-score),[28],-0.3
same,glycan array binding signal (z-score),[29],-0.228
same,glycan array binding signal (z-score),[30],-0.146
same,glycan array binding signal (z-score),[31],-0.002
same,glycan array binding signal (z-score),[32],-0.6
same,glycan array binding signal (z-score),[33],0.039
same,glycan array binding signal (z-score),[34],-0.046
same,glycan array binding signal (z-score),[35],-0.201
same,glycan array binding signal (z-score),[36],-0.273
same,glycan array binding signal (z-score),[37],-0.437
same,glycan array binding signal (z-score),[38],-0.328
same,glycan array binding signal (z-score),[39],0.075
same,glycan array binding signal (z-score),[40],-0.664
same,glycan array binding signal (z-score),[41],0.263
same,glycan array binding signal (z-score),[42],-0.267
same,glycan array binding signal (z-score),[43],-0.7

# 4 entries picked at random from those above, as already listed:
binder,measurement,setting,value
B1,glycan array binding signal (z-score),[7],-0.3
same,glycan array binding signal (z-score),[29],-0.228
same,glycan array binding signal (z-score),[13],0.98
same,glycan array binding signal (z-score),[15],-0.502
